Consider one molecule from publication PMC2852416, “Modular Insulators: Genome Wide Search for Composite CTCF/Thyroid Hormone Receptor Binding Sites”.

Results are given in words; binding and its absence hold for the method and conditions named. In cells and extracts the contact can be indirect. For some of these results: Binding can be weak; no strength is given. Where a sequence is shown, tags or fusion partners need not be part of it.

Holding throughout (assay): pull-down; GST fusion protein on glutathione-sepharose beads incubated with [35S]methionine-labeled in vitro translated protein in 200 µl binding buffer, 2 h at 4°C; washed 3 times; SDS-PAGE and fluorography; only the target purified
Assay [1] deals with GST fusion with the ligand binding domain (LBD) of TR (human).
The target in assay [2] is GST fusion with the DNA binding domain (DBD) of TR (human).
In assay [3] the target is GST fusion with the ligand binding domain (LBD) of RXR.
Assay [4] deals with GST fusion with the DNA binding domain (DBD) of RXR.

B1: CTCF (labelled prey in the pull-downs with GST receptor domains) (protein, UniProt P49711 1-727)
chain: MEGDAVEAIVEESETFIKGKERKTYQRRREGGQEEDACHLPQNQTDGGEVVQDVNSSVQMVMMEQLDPTLLQMKTEVMEGTVAPEAEAAVDDTQIITLQVVNMEEQPINIGELQLVQVPVPVTVPVATTSVEELQGAYENEVSKEGLAESEPMICHTLPLPEGFQVVKVGANGEVETLEQGELPPQEDPSWQKDPDYQPPAKKTKKTKKSKLRYTEEGKDVDVSVYDFEEEQQEGLLSEVNAEKVVGNMKPPKPTKIKKKGVKKTFQCELCSYTCPRRSNLDRHMKSHTDERPHKCHLCGRAFRTVTLLRNHLNTHTGTRPHKCPDCDMAFVTSGELVRHRRYKHTHEKPFKCSMCDYASVEVSKLKRHIRSHTGERPFQCSLCSYASRDTYKLKRHMRTHSGEKPYECYICHARFTQSGTMKMHILQKHTENVAKFHCPHCDTVIARKSDLGVHLRKQHSYIEQGKKCRYCDAVFHERYALIQHQKSHKNEKRFKCDQCDYACRQERHMIMHKRTHTGEKPYACSHCDKTFRQKQLLDMHFKRYHDPNFVPAAFVCSKCGKTFTRRNTMARHADNCAGPDGVEGENGGETKKSKRGRKRKMRSKKEDSSDSENAEPDLDDNEDEEEPAVEIEPEPEPQPVTPAPPPAKKRRGRPPGRTNQPKQNQPTAIIQVEDQNTGAIENIIVEVKKEPDAEPAEGEEEEAQPAATDAPNGDLTPEMILSMMDR
modifications: [35S]methionine-labeled
As to B1, the binding entry in assay [1] is recorded as “binds weakly”; in assay [2], “binds”; in assay [3] it was “no binding”; in assay [4], “binds”.
